The results in this text go back to article PMC4303897.

Sequences of proteins named here, by UniProt entry; tags and fusion partners are left off. Residues count along the entry.
UniProt Q8WVM0, residues 28-346: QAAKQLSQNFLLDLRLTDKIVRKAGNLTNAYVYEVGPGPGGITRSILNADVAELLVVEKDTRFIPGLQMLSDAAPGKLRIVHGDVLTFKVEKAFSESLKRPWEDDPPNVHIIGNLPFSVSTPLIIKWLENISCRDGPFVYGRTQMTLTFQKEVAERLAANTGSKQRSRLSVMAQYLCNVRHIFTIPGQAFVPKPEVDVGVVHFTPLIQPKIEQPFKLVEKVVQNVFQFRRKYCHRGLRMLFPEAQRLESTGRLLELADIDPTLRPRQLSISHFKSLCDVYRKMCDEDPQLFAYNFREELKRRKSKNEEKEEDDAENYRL

The assay concerns the target T1, Mic60 (as used in the co-IP with TFB1M) (human) (UniProt Q16891).
T1 sequence: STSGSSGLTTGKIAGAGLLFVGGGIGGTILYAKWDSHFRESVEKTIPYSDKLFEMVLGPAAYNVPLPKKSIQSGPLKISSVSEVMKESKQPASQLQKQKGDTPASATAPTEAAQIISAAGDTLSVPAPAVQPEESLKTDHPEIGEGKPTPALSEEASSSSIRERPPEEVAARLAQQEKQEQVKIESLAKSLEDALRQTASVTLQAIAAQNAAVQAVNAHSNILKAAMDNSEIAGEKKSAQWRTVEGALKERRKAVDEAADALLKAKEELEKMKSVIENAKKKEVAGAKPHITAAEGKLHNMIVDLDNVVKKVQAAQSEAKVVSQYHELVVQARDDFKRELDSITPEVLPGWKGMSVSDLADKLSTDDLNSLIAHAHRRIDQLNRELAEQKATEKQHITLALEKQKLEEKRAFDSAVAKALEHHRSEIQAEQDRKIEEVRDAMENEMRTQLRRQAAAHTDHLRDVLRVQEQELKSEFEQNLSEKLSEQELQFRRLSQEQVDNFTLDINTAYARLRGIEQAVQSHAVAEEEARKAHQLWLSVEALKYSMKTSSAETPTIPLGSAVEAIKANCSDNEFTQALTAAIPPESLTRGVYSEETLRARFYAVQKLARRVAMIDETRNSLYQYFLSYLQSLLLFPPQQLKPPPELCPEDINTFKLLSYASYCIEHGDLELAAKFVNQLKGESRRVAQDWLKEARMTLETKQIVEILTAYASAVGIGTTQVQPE
Nature of the assay: co-IP; co-IP of Mic60 and TFB1M shown in Supplementary figure S1; constructs and cells not told in the main text.

No constants are given. Whether binding was seen depends on the method and setting. Binding seen in cells or lysates may run through a third protein. Some binding calls cover weakened binding; strength is not graded here.

As to TFB1M (from UniProt Q8WVM0 28-346), the binding entry was “binds”.
